Test results published in PubChem BioAssay AID504467 (National Center for Advancing Translational Sciences (NCATS), 2011).
The campaign covered roughly 330,000 compounds. About 7,700 (2.3%) were called active. The shares of active, inactive and inconclusive entries below differ from those in the screen. Calls follow the shape of the dose curve; as a rule, active = well fitted inhibition curve with a large enough effect; inconclusive = small, poorly fitted or top-dose-only effect, or effect the other way; inactive = flat fitted curve, though single readings scatter. Where the call is inconclusive, the potency comes from a doubtful curve fit.

Assay: qHTS screen for small molecules that inhibit ELG1-dependent DNA repair in human embryonic kidney (HEK293T) cells expressing luciferase-tagged ELG1; also: nearly all actives have a fitted effect of over 55% in size
Conditions: HEK293T ELG1-luciferase reporter, luminescence, 16 h, DNA damage induced by 5-fluorouridine; series mostly up to 46.1 µM
How it was run: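 Overnight (16 hr) co-exposure of 2,000 cells/well to 5-fluorouridine and compound at 37 °C preceded detection. Luciferase was quantified via ONE-Glo luminescence; loss of signal denotes inhibition.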
Potency is read from the fitted curve at half-maximal effect.

Row | SMILES | Potency
1 | COc1cccc(NC(=O)Cn2c(=O)n(-c3ccccc3)c(=O)c3sccc32)c1 | inconclusive: 23.1 µM [activator, single point]
2 | CC(C)(C)CNC(=O)c1cccc2c1C(=O)c1ccc(N3CCCC3)cc1S2(=O)=O | active: 16.4 µM
3 | Cc1nnc(NC(=O)CSc2nnc(CC(=O)Nc3ccccc3Cl)n2C)s1 | inconclusive: 20.6 µM [activator, single point]
4 | CSc1ccc(CN(C)Cc2cc(=O)oc3c(C)c(C)ccc23)cc1 | inconclusive: 16.4 µM [inhibitor, partial curve]
5 | O=C(NCc1cc(C(F)(F)F)ccc1Cl)c1cccc2c1C(=O)c1ccc(N3CCOCC3)cc1S2(=O)=O | inconclusive: 3.26 µM [inhibitor, partial curve, poor fit]
6 | Cc1ccc(C(=O)Nc2ccc3c(c2)OCO3)cc1S(=O)(=O)N1CCCCC1 | inconclusive: 29.1 µM [inhibitor, single point]
7 | Cc1cc(N(C)C)ccc1N=Nc1ccc2ncccc2c1 | inconclusive: 9.2 µM [activator, partial curve]
8 | CC1=C(C(=O)OCc2ccccc2)C(c2ccc(Cl)cc2)NC(=O)N1CCCC(=O)O (stereo not drawn) | inactive
9 | COc1ccc(-c2cn(-c3ccc(OC)cc3)c(=S)[nH]2)cc1 | inconclusive: 23.1 µM [activator, partial curve]
10 | COc1ccccc1Nc1nc2ccc(C)cc2n2cnnc12 | inconclusive: 5.17 µM [activator, partial curve]
11 | COC(=O)CNC(c1ccccc1)c1cc(C)ccc1NC(=O)c1cccc(Cl)c1 (stereo not drawn) | active: 18.4 µM
12 | CN(C)CCCN1C(=O)C2CCc3[nH]c4ccccc4c3C2C1=O (stereo not drawn) | inconclusive: 2.31 µM [activator, full curve, poor fit]
13 | CCCn1c(O)c(/C=C2\C=NN=C2c2ccccc2)sc1=S | inconclusive: 29.1 µM [inhibitor, single point]
14 | O=C(CSc1ccccc1)Nc1ccc2c(c1)OCCO2 | inconclusive: 5.8 µM [activator, partial curve]
15 | O=[N+]([O-])c1ccccc1N/N=C\c1ccccc1F | inconclusive: 8.2 µM [activator, partial curve]
16 | Cn1c(SCC#N)nc2ccccc2c1=O | inconclusive: 18.3 µM [activator, single point]
17 | O=C1/C(=C/c2ccc(Cl)cc2)NC(=S)N1Cc1cccnc1 | inactive
18 | CCCOc1ccccc1C1CC(=O)Nc2cc3c(cc21)OCCO3 (stereo not drawn) | inconclusive: 2.31 µM [inhibitor, partial curve]
19 | Cc1ccc(C(=O)Nc2cccc(C(=O)O)c2)cc1 | inconclusive: 9.2 µM [inhibitor, partial curve, poor fit]
20 | Cc1ccccc1C(=O)NNC(=S)NC(=O)c1ccc(Cl)cc1Cl | inactive
21 | O=C(Nc1cccnc1)c1cnn2cccnc12 | inactive
22 | COc1ccccc1CC(=O)Nc1ccc(S(=O)(=O)N2CC(C)CC(C)C2)cc1 (stereo not drawn) | inconclusive: 18.3 µM [inhibitor, single point]
23 | CC(=O)Nc1nonc1-c1nc2ccccc2n1Cc1ccccc1 | inconclusive: 13 µM [activator, partial curve]

Row | SMILES | Potency
24 | CCC(=O)Nc1cccc(-n2nnnc2SCC(=O)c2ccc(C)c(C)c2)c1 | inactive
25 | CCOC(=O)c1ccc(Nc2nc(C(=O)OCC)nc3ccccc23)cc1 | inconclusive: 20.6 µM [inhibitor, partial curve, poor fit]
26 | COc1ccc(OCCSc2ncn[nH]2)cc1 | inconclusive: 35.5 µM [activator, single point]
27 | CCOc1ccccc1NC(=O)CSc1nc(=O)n(Cc2ccccn2)c2c1CCC2 | inactive
28 | Clc1ccc(C2=C3CCCCn4c(-c5ccccc5)c[n+](c43)C2)cc1 | inconclusive: 25.1 µM [inhibitor, single point]
29 | CC(C)NC(=O)Nc1ccc2c(c1)C(=O)N([C@@H](C)CO)C[C@@H](C)[C@@H](CN(C)S(=O)(=O)c1ccc(F)cc1)O2 | inconclusive: 23.1 µM [activator, partial curve, poor fit]
30 | Cc1ccc(NC(=O)CN(C)CC(=O)Nc2cccc(F)c2)cc1S(=O)(=O)N1CCCCCC1 | inconclusive: 16.4 µM [inhibitor, single point]
31 | CC(C)OC(=O)/C(=C\c1ccccc1)NC(=O)c1ccccc1 | inactive
32 | O=c1[nH]c2ccccc2nc1Cc1ccc(Cl)cc1 | inactive
33 | Cc1cc(C(=O)CSc2ncccn2)c(C)n1-c1cccc(F)c1 | inconclusive: 8.2 µM [activator, partial curve]
34 | COc1ccc(NC(=O)N2CCCC(C(=O)NCCc3ccccc3)C2)cc1 (stereo not drawn) | inconclusive: 23.1 µM [activator, partial curve, poor fit]
35 | Cc1c(CCC(=O)N[C@@H](CC(C)C)C(=O)O)c(=O)oc2cc3oc4c(c3cc12)CCCC4 | inconclusive: 10.3 µM [activator, partial curve]
36 | COc1ccc(CN/C=C2\CCCCC2=O)cc1 | inconclusive: 29.1 µM [activator, single point]
37 | C[C@@H]1COC(=O)[C@@H](CC(=O)OC(C)(C)C)C/C=C\C[C@H](CC(=O)N(CCO)Cc2ccccc2)C(=O)N1 | inactive
38 | COc1ccc(CCN(C)C(=O)c2cc(-c3ccccc3)nc3ccccc23)cc1OC | inconclusive: 18.3 µM [inhibitor, partial curve]
39 | CCCNC(=O)c1c(N)n(-c2cccc(OC)c2)c2nc3ccccc3nc12 | active: 16.4 µM
40 | CCOC(=O)c1c(C)[nH]c(C(=O)CN2C(=O)NC3(CCCC3)C2=O)c1C | inconclusive: 20.6 µM [activator, partial curve]
41 | O=C(COc1cccc2c1CCN(Cc1ccc(Cl)cc1)C2=O)N1CCOCC1 | active: 11.6 µM
42 | Cc1cc(OCC(=O)Nc2ccncc2)cc(C)c1Br | inconclusive: 2.06 µM [inhibitor, full curve]
43 | Cc1ccc(S(=O)(=O)N2CCOCC2)cc1C(=O)N(C)CCOc1ccc(Cl)cc1 | inactive
44 | Cc1cc(NC(=O)COC(=O)C2=NN(c3ccccc3)C(=O)CC2)c([N+](=O)[O-])cc1C | inconclusive: 0.58 µM [inhibitor, single point]
45 | COC(=O)C(C)NC(=O)c1ccc(C(C)(C)C)cc1 (stereo not drawn) | inconclusive: 18.4 µM [activator, partial curve]
46 | COc1cccc(-c2cc(C(F)(F)F)c(C#N)c(=O)[nH]2)c1 | inactive

Some of the entries above, reformatted.

| Row | SMILES | Potency |
| --- | --- | --- |
| 37 | C[C@@H]1COC(=O)[C@@H](CC(=O)OC(C)(C)C)C/C=C\C[C@H](CC(=O)N(CCO)Cc2ccccc2)C(=O)N1 | inactive |
| 38 | COc1ccc(CCN(C)C(=O)c2cc(-c3ccccc3)nc3ccccc23)cc1OC | inconclusive: 18.3 µM [inhibitor, partial curve] |
| 39 | CCCNC(=O)c1c(N)n(-c2cccc(OC)c2)c2nc3ccccc3nc12 | active: 16.4 µM |
| 40 | CCOC(=O)c1c(C)[nH]c(C(=O)CN2C(=O)NC3(CCCC3)C2=O)c1C | inconclusive: 20.6 µM [activator, partial curve] |
| 41 | O=C(COc1cccc2c1CCN(Cc1ccc(Cl)cc1)C2=O)N1CCOCC1 | active: 11.6 µM |

Next part.

Row | SMILES | Potency
47 | Cn1c(=O)c(-c2ccccc2N)nc2ccccc21 | inconclusive: 10 µM [activator, partial curve, poor fit]
48 | COc1ccc(N2CCN(c3nc4c(C)cccn4c(=O)c3/C=C(\C#N)C(N)=O)CC2)cc1 | active: 13 µM
49 | N=c1sccn1CC(=O)Nc1ccccc1Cc1ccccc1 | inactive
50 | CCC(=O)NC(=Nc1nc2ccccc2s1)NC(=O)CC | inconclusive: 4.61 µM [activator, partial curve]
51 | CCC(C)(C)C(=O)Nc1ccc(OC)cc1[N+](=O)[O-] | inconclusive: 32.6 µM [activator, partial curve, poor fit]
52 | COc1ccc(OCC(O)CN2C(=O)c3ccccc3S2(=O)=O)cc1 (stereo not drawn) | inactive
53 | COC(=O)c1ccccc1NC(=O)CSc1nnc(CNS(=O)(=O)c2ccc(C)cc2)n1C | inconclusive: 29.1 µM [inhibitor, partial curve, poor fit]
54 | CCc1nc(NCC2CCCO2)c(C#N)c2c1COC(C)(C)C2 (stereo not drawn) | inconclusive: 20.6 µM [inhibitor, single point]
55 | Cc1ccc(C2(c3ccc(C)cc3)NC(=O)N(Cc3c(C)noc3C)C2=O)cc1 | inconclusive: 16.4 µM [activator, single point]
56 | CC(=O)c1cccc(NCC(=O)Nc2cc(S(=O)(=O)N3CCCCC3)ccc2C)c1 | inconclusive: 29.1 µM [inhibitor, single point]
57 | Cc1ccc2nsnc2c1NC(=O)c1ccc([N+](=O)[O-])o1 | inconclusive: 14.6 µM [inhibitor, partial curve]
58 | CC(C)c1ccc(NC(=S)NCc2cccs2)cc1 | inconclusive: 23.1 µM [activator, single point]
59 | O=C(Nc1ccc(Oc2cccnc2)cc1)C1CCCCN1Cc1ccc(CO)o1 (stereo not drawn) | inconclusive: 32.6 µM [inhibitor, single point]
60 | CCOc1ccc(NC(=O)c2csc3c2CCCC3)cc1 | inconclusive: 3.26 µM [activator, full curve]
61 | COC(=O)c1ccc2c(=O)[nH]c(COC(=O)c3c(-c4ccccc4)noc3C)nc2c1 | inconclusive: 9.2 µM [inhibitor, partial curve, poor fit]
62 | COc1cccc(OC)c1C(=O)OCC(=O)N(c1ccccc1)C1CCCCC1 | inconclusive: 25.1 µM [inhibitor, single point]
63 | O=C(Cn1nc(Cl)nc1Cl)c1ccccc1 | inactive
64 | Cc1nc2ccc(Br)cc2c2c1CC(CBr)O2 (stereo not drawn) | inactive
65 | Cn1c(=O)cc(-c2ccccc2)c2ccccc21 | inconclusive: 14.6 µM [activator, partial curve, poor fit]
66 | O=C(Nc1nnc2n1CCS2)c1ccc(Br)o1 | inconclusive: 16.4 µM [activator, partial curve, poor fit]
67 | CS(=O)(=O)c1ccc2nc(NC(=O)c3ccco3)sc2c1 | inconclusive: 5.8 µM [activator, partial curve]
68 | O=C(c1ccccc1)c1cccc[n+]1[O-] | inactive
